Patent publication US9758485B2, “Compounds for controlling arthropods” (priority 2013, dated 2017)
Some of these results come from one statement about several compounds together. Some compounds share one range, which may span the group rather than tell each member.

Legend:
Assay type in all cases: in vivo
Settings in all cases: glazed tile, exposure 30 minutes, mortality after 24 hours
[1] = system: Anopheles gambiae strain RSPH (homozygot kdr); experiment: Anopheles test (ANPHGB surface treatment)
[2] = system: Anopheles funestus strain FUMOZ-R; experiment: Anopheles test (ANPHFU surface treatment)
[3] = system: Aedes aegypti strain MONHEIM; experiment: Aedes test (AEDSAE surface treatment)

Measured: efficacy

O=C(NC1CC1)c1cc(-c2cnn(-c3c(Cl)cc(C(F)(C(F)(F)F)C(F)(F)F)cc3C(F)(F)F)c2)cnc1Cl [I-T3-112]
90-100%: [1]; application rate 20 mg/m^2 | [1]; application rate 100 mg/m^2 | [2]; application rate 20 mg/m^2 | [2]; application rate 100 mg/m^2 | [3]; application rate 20 mg/m^2 | [3]; application rate 100 mg/m^2

CN(C(=O)c1cc(-c2cnn(-c3c(Cl)cc(C(F)(C(F)(F)F)C(F)(F)F)cc3C(F)(F)F)c2)cnc1Cl)C1(C#N)CC1 [I-T3-116]
90-100%: [1]; application rate 20 mg/m^2 | [2]; application rate 20 mg/m^2 | [3]; application rate 20 mg/m^2

Cc1cc(C(F)(C(F)(F)F)C(F)(F)F)cc(C(F)(F)F)c1-n1cc(-c2cnc(C)c(C(=O)N(C)C3(C#N)CC3)c2)cn1 [I-T3-123]
90-100%: [1]; application rate 100 mg/m^2 | [2]; application rate 20 mg/m^2 | [2]; application rate 100 mg/m^2 | [3]; application rate 20 mg/m^2 | [3]; application rate 100 mg/m^2

Cc1ncc(-c2cnn(-c3c(Cl)cc(C(F)(C(F)(F)F)C(F)(F)F)cc3Cl)c2)cc1C(=O)N(C)C1CC1 [I-T3-133]
90-100%: [1]; application rate 20 mg/m^2 | [1]; application rate 100 mg/m^2 | [2]; application rate 100 mg/m^2 | [3]; application rate 20 mg/m^2 | [3]; application rate 100 mg/m^2

CN(C(=O)c1cc(-c2cnn(-c3ccc(C(F)(C(F)(F)F)C(F)(F)F)cc3C(F)(F)F)c2)ccc1Cl)C1CC1 [I-T3-134]
90-100%: [1]; application rate 20 mg/m^2 | [1]; application rate 100 mg/m^2 | [2]; application rate 20 mg/m^2 | [2]; application rate 100 mg/m^2 | [3]; application rate 20 mg/m^2 | [3]; application rate 100 mg/m^2

CNc1ncc(-c2cnn(-c3c(Cl)cc(C(F)(C(F)(F)F)C(F)(F)F)cc3Cl)c2)cc1C(=O)NC1CC1 [I-T3-136]
90-100%: [1]; application rate 20 mg/m^2 | [1]; application rate 100 mg/m^2 | [2]; application rate 20 mg/m^2 | [2]; application rate 100 mg/m^2 | [3]; application rate 20 mg/m^2 | [3]; application rate 100 mg/m^2

CCN(C(=O)c1cc(-c2cnn(-c3c(Cl)cc(C(F)(F)F)cc3Cl)c2)cnc1Cl)C1CC1 [I-T3-145]
90-100%: [1]; application rate 20 mg/m^2 | [1]; application rate 100 mg/m^2 | [2]; application rate 20 mg/m^2 | [2]; application rate 100 mg/m^2 | [3]; application rate 20 mg/m^2 | [3]; application rate 100 mg/m^2

O=C(NC1CC1)c1cc(-c2cnn(-c3c(Br)cc(C(F)(C(F)(F)F)C(F)(F)F)cc3C(F)(F)F)c2)ccc1Cl [I-T3-148]
90-100%: [1]; application rate 20 mg/m^2 | [1]; application rate 100 mg/m^2 | [2]; application rate 20 mg/m^2 | [2]; application rate 100 mg/m^2 | [3]; application rate 20 mg/m^2 | [3]; application rate 100 mg/m^2

N#CC1(NC(=O)c2cc(-c3cnn(-c4c(Br)cc(C(F)(C(F)(F)F)C(F)(F)F)cc4C(F)(F)F)c3)ccc2Cl)CC1 [I-T3-155]
90-100%: [1]; application rate 20 mg/m^2 | [1]; application rate 100 mg/m^2 | [2]; application rate 20 mg/m^2 | [2]; application rate 100 mg/m^2 | [3]; application rate 20 mg/m^2 | [3]; application rate 100 mg/m^2

NC(=S)C1(NC(=O)c2cc(-c3cnn(-c4c(Cl)cc(C(F)(C(F)(F)F)C(F)(F)F)cc4C(F)(F)F)c3)cnc2Cl)CC1 [I-T3-159]
90-100%: [1]; application rate 20 mg/m^2 | [2]; application rate 20 mg/m^2 | [2]; application rate 100 mg/m^2 | [3]; application rate 20 mg/m^2

O=C(NC1CC1)c1cc(-c2cnn(-c3c(Br)cc(C(F)(C(F)(F)F)C(F)(F)F)cc3C(F)(F)F)c2)cnc1Cl [I-T3-160]
90-100%: [1]; application rate 20 mg/m^2 | [1]; application rate 100 mg/m^2 | [2]; application rate 20 mg/m^2 | [2]; application rate 100 mg/m^2 | [3]; application rate 20 mg/m^2 | [3]; application rate 100 mg/m^2

O=C(NC1CC1)c1cc(-c2cnn(-c3c(Cl)cc(C(F)(C(F)(F)F)C(F)(F)F)cc3OC(F)(F)F)c2)ccc1Cl [I-T3-162]
90-100%: [1]; application rate 20 mg/m^2 | [1]; application rate 100 mg/m^2 | [2]; application rate 20 mg/m^2 | [2]; application rate 100 mg/m^2 | [3]; application rate 20 mg/m^2 | [3]; application rate 100 mg/m^2

O=C(NC1CC1)c1cc(-c2cnn(-c3c(Cl)cc(C(F)(C(F)(F)F)C(F)(F)F)cc3OC(F)(F)F)c2)cnc1Cl [I-T3-189]
90-100%: [1]; application rate 20 mg/m^2 | [1]; application rate 100 mg/m^2 | [2]; application rate 20 mg/m^2 | [2]; application rate 100 mg/m^2 | [3]; application rate 20 mg/m^2 | [3]; application rate 100 mg/m^2

Cc1cc(C(F)(C(F)(F)F)C(F)(F)F)cc(C)c1-c1cc(-c2ccc(Cl)c(C(=O)NC3(C#N)CC3)c2)on1 [I-T22-2]
90-100%: [1]; application rate 20 mg/m^2 | [2]; application rate 20 mg/m^2 | [2]; application rate 100 mg/m^2 | [3]; application rate 20 mg/m^2 | [3]; application rate 100 mg/m^2
